Construct, isoform or probe ends are uncertain for at least one entry. For some of these results: The comparison behind a weaker result is the experiment's own reference, which may not be listed here. For some of these results: At least one verdict rests on a figure or table, not on a statement of the authors.
Key:
[1] = target: ENO1 K358Q (acetylated mimetic) (UniProt P06733); assay: competition pull-down (streptavidin, western blot); settings: with 2-PG, binding unchanged; recombinant protein; label: biotin; probe letters rebuilt from the primers and the genome
[2] = target: ENO1 K358R (deacetylated mimetic) (UniProt P06733); assay: competition pull-down (streptavidin, western blot); settings: with 2-PG, which competes with SNORA25; recombinant protein; label: biotin; probe letters rebuilt from the primers and the genome
[3] = target: ENO1 K358Q (acetylated mimetic) (UniProt P06733); assay: pull-down (streptavidin, western blot); settings: without 2-PG; recombinant protein; label: biotin; probe letters rebuilt from the primers and the genome
[4] = target: ENO1 K358R (deacetylated mimetic) (UniProt P06733); assay: pull-down (streptavidin, western blot); settings: without 2-PG; recombinant protein; label: biotin; probe letters rebuilt from the primers and the genome

Amino acid sequences for entries named in this document (tags omitted).
UniProt P06733, whole entry K358Q: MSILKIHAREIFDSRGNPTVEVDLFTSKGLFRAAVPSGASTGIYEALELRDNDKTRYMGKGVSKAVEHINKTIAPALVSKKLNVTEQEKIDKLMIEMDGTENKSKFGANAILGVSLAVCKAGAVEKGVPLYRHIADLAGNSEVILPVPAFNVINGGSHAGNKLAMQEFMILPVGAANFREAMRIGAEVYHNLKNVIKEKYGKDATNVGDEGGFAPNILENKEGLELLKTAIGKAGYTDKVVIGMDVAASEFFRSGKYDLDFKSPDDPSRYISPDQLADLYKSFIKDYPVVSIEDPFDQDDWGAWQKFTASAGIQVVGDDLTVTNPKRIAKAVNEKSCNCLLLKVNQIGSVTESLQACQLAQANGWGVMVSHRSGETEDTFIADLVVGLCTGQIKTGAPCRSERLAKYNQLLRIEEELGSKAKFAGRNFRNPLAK
UniProt P06733, whole entry K358R: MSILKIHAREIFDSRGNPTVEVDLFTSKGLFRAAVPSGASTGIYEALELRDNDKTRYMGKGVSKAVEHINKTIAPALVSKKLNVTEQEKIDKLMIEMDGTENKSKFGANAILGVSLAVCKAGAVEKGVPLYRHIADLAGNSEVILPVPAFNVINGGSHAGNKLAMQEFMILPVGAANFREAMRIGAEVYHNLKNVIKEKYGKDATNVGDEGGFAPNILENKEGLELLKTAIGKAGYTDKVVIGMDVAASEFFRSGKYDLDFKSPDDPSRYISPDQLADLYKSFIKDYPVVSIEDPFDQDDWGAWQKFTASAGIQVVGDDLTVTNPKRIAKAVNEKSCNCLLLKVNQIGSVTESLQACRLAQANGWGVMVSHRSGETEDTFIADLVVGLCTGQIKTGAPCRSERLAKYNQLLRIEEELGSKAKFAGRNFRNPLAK

## GGGAGAGGGUCAUUUCAAAGAGGGCUUAUGAGGCUGUGAAACCCAGAGCUCUUAACGCUGUGACCAAAGAUGGAAGUUCUCUAUAGGAAGCCAUAGCACUCCUAAUGUUUGGUGCUAUGUUUUCCUGAGGAGAUAUAAAA [SNORA25]
[1]
  binding result: binds
[2]
  binding result: binds more weakly
[3]
  binding result: binds
[4]
  binding result: binds
